# In US7939530B2, “Treatment of lymphoma using 10-propargyl-10-deazaaminopterin and gemcitabine” (Sloan-Kettering Institute for Cancer Research, priority 2004, dated 2011):
# Some results were stated once for a whole list of compounds, not compound by compound. Some ranges recur; such a range may be that of the whole group of compounds.
# System: SKI-DLCL-1 cells
# Experiment: Cell cycle analysis by propidium iodide binding
# Type: cell-based, human
# Conditions: control about 12%
row,Compound,percentage of cells in G2 [%]
1,"Nc1ccn([C@@H]2O[C@H](CO)[C@@H](O)[C@@H]2O)c(=O)n1 [Ara-C, cytarabine]",9 to 15
2,"Nc1ccn([C@@H]2O[C@H](CO)[C@@H](O)C2(F)F)c(=O)n1 [Gem, 1-(2′,2′-difluoro-β-D-arabinofuranosyl) cytosine]",9 to 15
3,"CN(Cc1cnc2nc(N)nc(N)c2n1)c1ccc(C(=O)N[C@@H](CCC(=O)O)C(=O)O)cc1 [MTX, methotrexate]",9 to 15
